Measurements: US20250154171A1, “RAS INHIBITORS” (Revolution Medicines, Inc., priority 2023, published 2025)
Some entries share one result that the patent states for a list of compounds.

Protein sequences, listed by entry. Tags and fused reporters are not part of them. Lines headed by an entry give the natural chain unless they say otherwise; changes in a name come on top. Residues count along the entry.
UniProt P01116, 1-188 isoform P01116-2 G12A: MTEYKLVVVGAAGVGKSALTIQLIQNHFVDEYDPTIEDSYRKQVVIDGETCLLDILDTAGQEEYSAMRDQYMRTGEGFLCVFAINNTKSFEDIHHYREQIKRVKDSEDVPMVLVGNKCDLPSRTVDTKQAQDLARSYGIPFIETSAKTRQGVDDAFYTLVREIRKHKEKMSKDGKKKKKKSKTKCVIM
UniProt P01116, 1-188 isoform P01116-2 G12V: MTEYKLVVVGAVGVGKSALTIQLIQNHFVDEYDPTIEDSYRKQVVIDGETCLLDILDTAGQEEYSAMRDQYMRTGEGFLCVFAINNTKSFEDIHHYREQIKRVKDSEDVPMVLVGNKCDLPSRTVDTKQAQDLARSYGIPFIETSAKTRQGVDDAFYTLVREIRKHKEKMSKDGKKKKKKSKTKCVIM
UniProt P62937, whole entry: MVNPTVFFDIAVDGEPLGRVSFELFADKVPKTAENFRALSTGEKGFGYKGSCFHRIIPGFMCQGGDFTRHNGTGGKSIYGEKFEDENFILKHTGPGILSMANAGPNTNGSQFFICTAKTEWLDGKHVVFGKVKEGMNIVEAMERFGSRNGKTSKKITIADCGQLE

Tests used:
[1] = biological target: K-RasG12A (Homo sapiens, UniProt P01116+P62937, G12A); test: Disruption of BRAF RBD interaction with K-Ras (TR-FRET / MOA assay), K-RasG12A; type: biochemical; conditions: TR-FRET with cyclophilin A and GST-BRAF RBD, read-out: IC50 with respect to K-RasG12A (disruption of BRAF RBD interaction)
[2] = biological target: K-RasG12V (Homo sapiens, UniProt P01116+P62937, G12V); test: Disruption of BRAF RBD interaction with K-Ras (TR-FRET / MOA assay), K-RasG12V; type: biochemical; conditions: TR-FRET with cyclophilin A and GST-BRAF RBD, read-out: IC50 with respect to K-RasG12V (disruption of BRAF RBD interaction)
[3] = test system: Capan-1 (K-Ras G12V); test: CellTiter-Glo cell viability assay, Capan-1; type: cell-based, human; conditions: 5-day treatment, Capan-1 and/or NCI-H2009 versus A375

SMILES	IC50 [1]	IC50 [2]	decrease in cell viability with respect to Capan-1 and/or NCI-H2009 versus wild-type KRAS (A375) [3]
CO[C@@H](C)c1ncccc1-c1c2c3cc(ccc3n1C1CN(C3CC3)C1)-c1coc(n1)[C@@H](N1CCOC3(CN(C)C3)C1)[C@H](NC(=O)[C@@H]1[C@@H](C)[C@H]1c1ccncn1)C(=O)N1CCC[C@H](N1)C(=O)OCC(C)(C)C2 (atropisomer, axis not shown) [Example A969]	< 1 µM	< 1 µM	greater decrease in cell viability
CO[C@@H](C)c1ncccc1-c1c2c3cc(ccc3n1C1CN(C3CC3)C1)-c1csc(n1)[C@@H](N1CC3(CCCN3c3ccncn3)C1)[C@H](NC(=O)[C@@H]1[C@@H](C)[C@H]1c1ccncn1)C(=O)N1CCC[C@H](N1)C(=O)OCC(C)(C)C2 (atropisomer, axis not shown) [Example A970]	< 1 µM	< 1 µM	greater decrease in cell viability
CO[C@@H](C)c1ncccc1-c1c2c3cc(ccc3n1CCO[C@H]1CCOC(C)(C)C1)-c1csc(n1)[C@@H](N1CC3(CCCN3C)C1)[C@H](NC(=O)[C@H]1[C@H](C)[C@@H]1C)C(=O)N1CCC[C@H](N1)C(=O)OCC(C)(C)C2 (atropisomer, axis not shown) [Example A973]	< 1 µM	< 1 µM	greater decrease in cell viability
CO[C@@H](C)c1ncccc1-c1c2c3cc(ccc3n1C1CC3(COC3)C1)-c1csc(n1)[C@@H](N1CC3(CCCN3C)C1)[C@H](NC(=O)[C@H]1[C@H](C)[C@@H]1C)C(=O)N1CCC[C@H](N1)C(=O)OCC(C)(C)C2 (atropisomer, axis not shown) [Example A974]	< 1 µM	< 1 µM	greater decrease in cell viability
CO[C@@H](C)c1ncccc1-c1c2c3cc(ccc3n1C1COC1)-c1csc(n1)[C@@H](N1CC3(CCCN3C)C1)[C@H](NC(=O)[C@H]1[C@H](C)[C@@H]1C)C(=O)N1CCC[C@H](N1)C(=O)OCC(C)(C)C2 (atropisomer, axis not shown) [Example A975]	< 1 µM	< 1 µM	greater decrease in cell viability
CO[C@@H](C)c1ncccc1-c1c2c3cc(ccc3n1CCO[C@H]1CCOC(C)(C)C1)-c1csc(n1)[C@@H](N1CC3(CCCN3C)C1)[C@H](NC(=O)[C@@H]1[C@@H](C)[C@H]1c1ccncn1)C(=O)N1CCC[C@H](N1)C(=O)OCC(C)(C)C2 (atropisomer, axis not shown) [Example A976]	< 1 µM	< 1 µM	greater decrease in cell viability
CO[C@@H](C)c1ncccc1-c1c2c3cc(ccc3n1C1CN(C3CC3)C1)-c1coc(n1)[C@@H](N1CC3(CC(F)C3)C1)[C@H](NC(=O)[C@@H]1[C@@H](C)[C@H]1c1ccncn1)C(=O)N1CCC[C@H](N1)C(=O)OCC(C)(C)C2 (atropisomer, axis not shown) [Example A981]	< 1 µM	< 1 µM	greater decrease in cell viability
CO[C@@H](C)c1ncccc1-c1c2c3cc(ccc3n1C1CN(C3CC3)C1)-c1csc(n1)[C@@H](N1CC3(CCN3C3CCN(C)CC3)C1)[C@H](NC(=O)[C@H]1[C@H](C)[C@@H]1C)C(=O)N1CCC[C@H](N1)C(=O)OCC(C)(C)C2 (atropisomer, axis not shown) [Example A987]	< 1 µM	< 1 µM	greater decrease in cell viability
COCCN1CCN(c2cnc([C@H](C)OC)c(-c3c4c5cc(ccc5n3C3CN(C5CC5)C3)-c3coc(n3)[C@@H](N3CC5(COC5)C3)[C@H](NC(=O)[C@H]3[C@H](C)[C@@H]3C(C)C)C(=O)N3CCC[C@H](N3)C(=O)OCC(C)(C)C4)c2)CC1 (atropisomer, axis not shown) [Example A991]	< 1 µM	< 1 µM	greater decrease in cell viability
CO[C@@H](C)c1ncccc1-c1c2c3cc(ccc3n1C1CN(C3CC3)C1)-c1csc(n1)[C@@H](N1CC3(CCCN3C)C1)[C@H](NC(=O)[C@H]1C[C@@H]1C)C(=O)N1CCC[C@H](N1)C(=O)OCC(C)(C)C2 (atropisomer, axis not shown) [Example A995]	< 1 µM	< 1 µM	greater decrease in cell viability
CO[C@@H](C)c1ncccc1-c1c2c3cc(ccc3n1C1CN(C3CC3)C1)-c1csc(n1)[C@@H](N1CC3(CCN3S(C)(=O)=O)C1)[C@H](NC(=O)[C@H]1[C@H](C)[C@@H]1C)C(=O)N1CCC[C@H](N1)C(=O)OCC(C)(C)C2 (atropisomer, axis not shown) [Example A1003]	< 1 µM	< 1 µM	greater decrease in cell viability
CO[C@@H](C)c1ncccc1-c1c2c3cc(ccc3n1C1CN(C3CC3)C1)-c1csc(n1)[C@@H](N1CC3(CCN3S(C)(=O)=O)C1)[C@H](NC(=O)[C@@H]1[C@@H](C)[C@H]1c1ccncn1)C(=O)N1CCC[C@H](N1)C(=O)OCC(C)(C)C2 (atropisomer, axis not shown) [Example A1005]	< 1 µM	< 1 µM	greater decrease in cell viability
CO[C@@H](C)c1ncccc1-c1c2c3cc(ccc3n1C1CN(C3CC3)C1)-c1csc(n1)[C@@H](N1CC3(CCN3C3CCOCC3)C1)[C@H](NC(=O)[C@@H]1[C@@H](C)[C@H]1c1ccncn1)C(=O)N1CCC[C@H](N1)C(=O)OCC(C)(C)C2 (atropisomer, axis not shown) [Example A1006]	< 1 µM	< 1 µM	greater decrease in cell viability
COCCN1CCN(c2cnc([C@H](C)OC)c(-c3c4c5cc(ccc5n3C3CN(C5CC5)C3)-c3coc(n3)[C@@H](N3CC5(COC5)C3)[C@H](NC(=O)[C@@H]3[C@@H](C)[C@H]3C(C)C)C(=O)N3CCC[C@H](N3)C(=O)OCC(C)(C)C4)c2)CC1 (atropisomer, axis not shown) [Example A1007]	< 1 µM	< 1 µM	greater decrease in cell viability
COCCN1CCN(c2cnc([C@H](C)OC)c(-c3c4c5cc(ccc5n3C3CN(C5CC5)C3)-c3coc(n3)[C@@H](N3CC5(COC5)C3)[C@H](NC(=O)[C@@H]3[C@@H](C)[C@H]3c3ccncn3)C(=O)N3CCC[C@H](N3)C(=O)OCC(C)(C)C4)c2)CC1 (atropisomer, axis not shown) [Example A1008]	< 1 µM	< 1 µM	greater decrease in cell viability
CO[C@@H](C)c1ncccc1-c1c2c3cc(ccc3n1C1CN(C3CC3)C1)-c1csc(n1)[C@@H](OC1CCCC1)[C@H](NC(=O)[C@H]1[C@H](C)[C@@H]1C)C(=O)N1CCC[C@H](N1)C(=O)OCC(C)(C)C2 (atropisomer, axis not shown) [Example A1011]	< 1 µM	< 1 µM	greater decrease in cell viability
CO[C@@H](C)c1ncccc1-c1c2c3cc(ccc3n1C1CN(C3CC3)C1)-c1csc(n1)[C@@H](OCC(C)(C)F)[C@H](NC(=O)[C@@H]1[C@@H](C)[C@H]1c1ccncn1)C(=O)N1CCC[C@H](N1)C(=O)OCC(C)(C)C2 (atropisomer, axis not shown) [Example A1013]	< 1 µM	< 1 µM	greater decrease in cell viability
CO[C@@H](C)c1ncccc1-c1c2c3cc(ccc3n1C1CN(C3CC3)C1)-c1csc(n1)[C@@H](N1CC3(CCN3)C1)[C@H](NC(=O)[C@@H]1[C@@H](C)[C@H]1c1ccncn1)C(=O)N1CCC[C@H](N1)C(=O)OCC(C)(C)C2 (atropisomer, axis not shown) [Example A1016]	< 1 µM	< 1 µM	greater decrease in cell viability
CO[C@@H](C)c1ncccc1-c1c2c3cc(ccc3n1C1CN(C3CC3)C1)-c1csc(n1)[C@@H](N1CC3(CCN3)C1)[C@H](NC(=O)[C@H]1[C@H](C)[C@@H]1C)C(=O)N1CCC[C@H](N1)C(=O)OCC(C)(C)C2 (atropisomer, axis not shown) [Example A1017]	< 1 µM	< 1 µM	greater decrease in cell viability
CO[C@@H](C)c1ncccc1-c1c2c3cc(ccc3n1C1CN(C3CC3)C1)-c1coc(n1)[C@@H](N1CC3(CCCN3)C1)[C@H](NC(=O)[C@@H]1[C@@H](C)[C@H]1c1ccncn1)C(=O)N1CCC[C@H](N1)C(=O)OCC(C)(C)C2 (atropisomer, axis not shown) [Example A1018]	< 1 µM	< 1 µM	greater decrease in cell viability
CO[C@@H](C)c1ncccc1-c1c2c3cc(ccc3n1C1CN(C3CC3)C1)-c1coc(n1)[C@@H](N1CC3(CCCN3C3CCOCC3)C1)[C@H](NC(=O)[C@@H]1[C@@H](C)[C@H]1c1ccncn1)C(=O)N1CCC[C@H](N1)C(=O)OCC(C)(C)C2 (atropisomer, axis not shown) [Example A1023]	< 1 µM	< 1 µM	greater decrease in cell viability
